Test results from the supplement of paper PMC10849652.
The other results are listed elsewhere or left out.

Protein sequences, listed by entry. Tags and fused reporters are not part of them. Lines headed by an entry give the natural chain unless they say otherwise; changes in a name come on top.
UniProt Q9Y4Z0: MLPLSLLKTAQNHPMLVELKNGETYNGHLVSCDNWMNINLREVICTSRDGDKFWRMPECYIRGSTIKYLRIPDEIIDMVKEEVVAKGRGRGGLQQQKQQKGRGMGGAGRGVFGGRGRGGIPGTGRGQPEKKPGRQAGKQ
UniProt Q5SRI9: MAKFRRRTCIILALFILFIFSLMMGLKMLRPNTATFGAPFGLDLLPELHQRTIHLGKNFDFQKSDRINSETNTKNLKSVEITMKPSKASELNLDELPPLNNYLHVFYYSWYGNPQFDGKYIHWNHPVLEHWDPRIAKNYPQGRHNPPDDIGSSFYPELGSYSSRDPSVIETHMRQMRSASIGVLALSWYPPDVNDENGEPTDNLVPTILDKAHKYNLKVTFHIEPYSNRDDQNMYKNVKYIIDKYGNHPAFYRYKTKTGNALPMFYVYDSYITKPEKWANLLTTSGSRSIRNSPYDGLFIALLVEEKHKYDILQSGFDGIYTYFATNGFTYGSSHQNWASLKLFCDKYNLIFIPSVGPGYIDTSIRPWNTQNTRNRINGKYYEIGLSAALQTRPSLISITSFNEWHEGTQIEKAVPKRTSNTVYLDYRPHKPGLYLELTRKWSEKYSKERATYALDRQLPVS
UniProt Q8IVH8: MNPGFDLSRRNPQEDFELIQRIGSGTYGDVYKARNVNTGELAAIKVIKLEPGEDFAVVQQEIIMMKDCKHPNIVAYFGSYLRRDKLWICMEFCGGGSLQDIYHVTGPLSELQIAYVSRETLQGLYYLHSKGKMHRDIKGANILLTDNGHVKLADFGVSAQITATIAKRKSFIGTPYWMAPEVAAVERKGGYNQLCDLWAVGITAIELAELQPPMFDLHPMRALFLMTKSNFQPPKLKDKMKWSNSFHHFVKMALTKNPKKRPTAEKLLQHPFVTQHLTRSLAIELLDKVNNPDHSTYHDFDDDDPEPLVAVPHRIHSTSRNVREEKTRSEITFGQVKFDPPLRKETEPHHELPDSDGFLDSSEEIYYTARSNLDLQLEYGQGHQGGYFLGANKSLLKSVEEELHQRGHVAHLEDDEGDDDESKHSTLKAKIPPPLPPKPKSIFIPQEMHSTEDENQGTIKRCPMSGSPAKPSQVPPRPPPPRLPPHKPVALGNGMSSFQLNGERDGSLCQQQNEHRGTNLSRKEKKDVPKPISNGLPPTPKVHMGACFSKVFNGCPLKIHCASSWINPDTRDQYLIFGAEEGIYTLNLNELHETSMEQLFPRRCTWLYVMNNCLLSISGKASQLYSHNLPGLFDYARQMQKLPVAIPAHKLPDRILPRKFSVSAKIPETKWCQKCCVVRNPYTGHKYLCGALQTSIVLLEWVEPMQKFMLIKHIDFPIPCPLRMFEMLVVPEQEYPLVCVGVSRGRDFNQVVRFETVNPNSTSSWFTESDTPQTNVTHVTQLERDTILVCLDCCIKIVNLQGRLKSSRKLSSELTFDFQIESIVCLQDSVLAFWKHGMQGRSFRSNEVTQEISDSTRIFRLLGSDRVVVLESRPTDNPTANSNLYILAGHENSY
UniProt P27448: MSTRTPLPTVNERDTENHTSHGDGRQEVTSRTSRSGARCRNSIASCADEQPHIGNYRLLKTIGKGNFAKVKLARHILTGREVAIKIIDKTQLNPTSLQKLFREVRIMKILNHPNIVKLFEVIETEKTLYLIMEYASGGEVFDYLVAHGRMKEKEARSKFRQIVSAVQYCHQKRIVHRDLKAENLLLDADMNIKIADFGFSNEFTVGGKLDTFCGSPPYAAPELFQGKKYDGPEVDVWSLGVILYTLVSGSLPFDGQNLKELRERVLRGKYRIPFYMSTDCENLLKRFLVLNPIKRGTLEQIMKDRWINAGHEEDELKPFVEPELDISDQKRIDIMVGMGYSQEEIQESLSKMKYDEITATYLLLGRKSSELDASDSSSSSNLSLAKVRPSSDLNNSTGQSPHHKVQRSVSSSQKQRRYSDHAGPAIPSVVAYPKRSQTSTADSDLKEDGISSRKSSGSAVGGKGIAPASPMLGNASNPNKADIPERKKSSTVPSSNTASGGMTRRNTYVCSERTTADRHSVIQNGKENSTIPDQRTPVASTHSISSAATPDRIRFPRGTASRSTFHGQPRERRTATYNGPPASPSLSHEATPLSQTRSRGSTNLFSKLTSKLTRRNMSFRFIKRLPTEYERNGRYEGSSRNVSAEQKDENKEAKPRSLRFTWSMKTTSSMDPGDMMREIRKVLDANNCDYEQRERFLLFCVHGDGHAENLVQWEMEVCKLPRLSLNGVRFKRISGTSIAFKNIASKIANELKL
UniProt Q92585: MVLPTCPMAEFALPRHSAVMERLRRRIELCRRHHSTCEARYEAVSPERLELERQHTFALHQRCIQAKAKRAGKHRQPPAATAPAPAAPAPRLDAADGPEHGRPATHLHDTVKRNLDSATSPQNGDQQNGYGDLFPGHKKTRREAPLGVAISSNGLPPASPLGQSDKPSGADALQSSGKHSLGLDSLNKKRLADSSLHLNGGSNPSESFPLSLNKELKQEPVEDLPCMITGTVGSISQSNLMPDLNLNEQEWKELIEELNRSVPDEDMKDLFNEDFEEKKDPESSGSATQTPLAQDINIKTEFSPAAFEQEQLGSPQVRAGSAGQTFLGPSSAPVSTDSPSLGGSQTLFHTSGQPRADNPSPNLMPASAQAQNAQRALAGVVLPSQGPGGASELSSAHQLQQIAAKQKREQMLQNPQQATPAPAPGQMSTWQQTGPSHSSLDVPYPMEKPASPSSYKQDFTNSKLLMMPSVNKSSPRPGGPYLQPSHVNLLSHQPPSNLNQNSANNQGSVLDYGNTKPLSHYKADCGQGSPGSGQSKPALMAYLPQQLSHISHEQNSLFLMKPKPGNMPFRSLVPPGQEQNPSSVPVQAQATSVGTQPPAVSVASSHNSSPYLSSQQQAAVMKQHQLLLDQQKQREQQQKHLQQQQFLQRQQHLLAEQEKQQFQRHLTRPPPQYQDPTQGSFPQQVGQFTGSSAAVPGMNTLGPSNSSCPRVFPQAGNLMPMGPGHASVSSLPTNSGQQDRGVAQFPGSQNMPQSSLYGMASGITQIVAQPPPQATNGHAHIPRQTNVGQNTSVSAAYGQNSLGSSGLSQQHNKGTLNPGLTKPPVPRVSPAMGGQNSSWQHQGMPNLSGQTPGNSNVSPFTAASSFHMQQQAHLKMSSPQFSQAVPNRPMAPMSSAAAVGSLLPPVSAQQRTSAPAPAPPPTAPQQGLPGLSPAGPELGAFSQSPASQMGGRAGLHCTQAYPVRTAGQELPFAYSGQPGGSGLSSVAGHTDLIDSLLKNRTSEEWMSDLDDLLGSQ
UniProt Q9BQ69: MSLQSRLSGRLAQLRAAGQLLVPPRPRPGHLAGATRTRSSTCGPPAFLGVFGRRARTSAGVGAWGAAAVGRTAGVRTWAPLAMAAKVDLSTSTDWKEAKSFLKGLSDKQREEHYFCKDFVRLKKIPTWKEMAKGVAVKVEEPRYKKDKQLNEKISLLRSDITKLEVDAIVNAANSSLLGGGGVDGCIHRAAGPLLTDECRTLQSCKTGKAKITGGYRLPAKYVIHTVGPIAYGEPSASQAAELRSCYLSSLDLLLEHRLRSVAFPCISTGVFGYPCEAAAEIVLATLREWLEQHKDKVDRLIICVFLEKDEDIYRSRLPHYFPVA
UniProt Q8WZA0: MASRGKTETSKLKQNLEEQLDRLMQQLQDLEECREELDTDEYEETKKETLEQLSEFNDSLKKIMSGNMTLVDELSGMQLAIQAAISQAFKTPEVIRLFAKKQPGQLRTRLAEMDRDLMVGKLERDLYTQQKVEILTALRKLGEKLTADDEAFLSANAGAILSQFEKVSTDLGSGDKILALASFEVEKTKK
UniProt Q86V48: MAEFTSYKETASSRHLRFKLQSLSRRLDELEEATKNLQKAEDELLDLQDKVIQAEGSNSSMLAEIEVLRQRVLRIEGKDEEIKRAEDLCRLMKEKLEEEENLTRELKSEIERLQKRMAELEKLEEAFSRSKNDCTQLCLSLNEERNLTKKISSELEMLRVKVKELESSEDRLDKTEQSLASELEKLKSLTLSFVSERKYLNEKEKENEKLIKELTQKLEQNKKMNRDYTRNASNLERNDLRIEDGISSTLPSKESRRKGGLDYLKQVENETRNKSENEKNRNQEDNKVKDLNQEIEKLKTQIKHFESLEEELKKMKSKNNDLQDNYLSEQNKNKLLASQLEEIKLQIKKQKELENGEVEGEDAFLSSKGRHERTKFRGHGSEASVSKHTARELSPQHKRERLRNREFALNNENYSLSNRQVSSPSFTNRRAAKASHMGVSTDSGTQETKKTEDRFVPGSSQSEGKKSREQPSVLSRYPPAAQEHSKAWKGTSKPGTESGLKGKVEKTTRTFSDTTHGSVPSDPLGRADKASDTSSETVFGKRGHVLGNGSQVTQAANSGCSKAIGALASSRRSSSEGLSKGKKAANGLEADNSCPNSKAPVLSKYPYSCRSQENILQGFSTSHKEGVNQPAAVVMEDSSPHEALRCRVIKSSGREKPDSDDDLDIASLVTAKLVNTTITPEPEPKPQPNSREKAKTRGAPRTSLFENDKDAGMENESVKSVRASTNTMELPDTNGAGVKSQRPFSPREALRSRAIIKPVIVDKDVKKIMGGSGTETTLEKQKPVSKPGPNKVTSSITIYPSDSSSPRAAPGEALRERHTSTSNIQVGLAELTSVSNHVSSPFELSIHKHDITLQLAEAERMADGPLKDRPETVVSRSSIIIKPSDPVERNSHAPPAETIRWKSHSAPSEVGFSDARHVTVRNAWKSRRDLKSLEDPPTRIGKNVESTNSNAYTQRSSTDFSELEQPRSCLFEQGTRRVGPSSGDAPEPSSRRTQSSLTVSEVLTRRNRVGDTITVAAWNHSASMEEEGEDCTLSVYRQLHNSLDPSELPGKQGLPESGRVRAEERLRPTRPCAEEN
UniProt O00754: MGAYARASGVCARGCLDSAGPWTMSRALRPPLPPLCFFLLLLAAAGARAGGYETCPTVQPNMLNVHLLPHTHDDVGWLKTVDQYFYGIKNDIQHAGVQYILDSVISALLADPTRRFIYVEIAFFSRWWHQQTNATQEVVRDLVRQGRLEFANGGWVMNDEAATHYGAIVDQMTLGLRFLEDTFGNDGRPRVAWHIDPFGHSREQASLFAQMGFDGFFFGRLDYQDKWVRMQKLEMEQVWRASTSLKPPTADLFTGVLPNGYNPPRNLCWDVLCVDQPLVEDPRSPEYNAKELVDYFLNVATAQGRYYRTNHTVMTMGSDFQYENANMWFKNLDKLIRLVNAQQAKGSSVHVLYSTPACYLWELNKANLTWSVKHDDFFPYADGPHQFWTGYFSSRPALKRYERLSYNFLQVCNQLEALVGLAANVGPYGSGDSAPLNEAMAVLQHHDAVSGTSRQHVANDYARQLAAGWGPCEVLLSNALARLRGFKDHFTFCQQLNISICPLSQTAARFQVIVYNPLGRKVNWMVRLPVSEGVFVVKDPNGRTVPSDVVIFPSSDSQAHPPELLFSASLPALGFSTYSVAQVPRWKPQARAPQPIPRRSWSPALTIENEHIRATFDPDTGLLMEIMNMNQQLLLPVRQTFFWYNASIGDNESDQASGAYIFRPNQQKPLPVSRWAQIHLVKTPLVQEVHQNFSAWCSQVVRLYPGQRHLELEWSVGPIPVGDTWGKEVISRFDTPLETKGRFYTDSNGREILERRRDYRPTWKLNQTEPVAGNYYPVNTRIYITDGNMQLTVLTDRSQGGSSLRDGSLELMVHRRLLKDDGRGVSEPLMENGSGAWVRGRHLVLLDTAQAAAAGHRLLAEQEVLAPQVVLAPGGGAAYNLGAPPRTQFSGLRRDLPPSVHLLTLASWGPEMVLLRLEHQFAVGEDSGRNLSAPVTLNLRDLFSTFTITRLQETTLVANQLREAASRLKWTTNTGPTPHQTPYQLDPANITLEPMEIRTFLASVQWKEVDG
UniProt P62310: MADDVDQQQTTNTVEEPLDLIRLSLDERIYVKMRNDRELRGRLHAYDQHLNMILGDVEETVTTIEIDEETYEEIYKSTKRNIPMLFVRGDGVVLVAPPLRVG
UniProt Q9UPY8, whole entry, looked up: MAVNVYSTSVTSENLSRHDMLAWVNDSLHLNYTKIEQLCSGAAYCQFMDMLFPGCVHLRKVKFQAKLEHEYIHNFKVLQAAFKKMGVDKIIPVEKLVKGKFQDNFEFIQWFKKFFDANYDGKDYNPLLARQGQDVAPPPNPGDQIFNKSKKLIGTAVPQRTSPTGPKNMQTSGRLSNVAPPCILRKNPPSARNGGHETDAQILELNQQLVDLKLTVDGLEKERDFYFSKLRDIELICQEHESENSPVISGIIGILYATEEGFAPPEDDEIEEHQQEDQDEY
UniProt O15479: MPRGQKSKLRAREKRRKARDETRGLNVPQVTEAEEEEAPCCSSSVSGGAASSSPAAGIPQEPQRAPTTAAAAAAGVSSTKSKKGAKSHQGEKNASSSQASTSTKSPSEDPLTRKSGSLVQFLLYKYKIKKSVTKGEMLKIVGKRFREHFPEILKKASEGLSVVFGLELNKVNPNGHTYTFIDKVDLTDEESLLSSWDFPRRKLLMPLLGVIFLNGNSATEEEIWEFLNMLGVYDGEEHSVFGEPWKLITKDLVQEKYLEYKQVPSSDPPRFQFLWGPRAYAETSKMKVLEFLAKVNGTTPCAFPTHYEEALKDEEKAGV

Experiments:
Experiment in all cases: log2 fold change, soluble protein after heating vs DMSO (PISA); higher = thermal stabilisation; K562 cells, 10 uM, 30 min; active = over 0.2 and 3.5 SD of the protein, either way, in both replicates (recomputed)
[1] = compound: COC1=CC=C(C=C1)CN2C=CC3=C2C=C(C=C3)C(=O)NO
Procedure, shortened: (§1)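 K562 cells at 2×10^6 cells/mL were treated with 10 μM compound for 30 min. Aliquots were heated for 3 min across 48°C-58°C, pooled, and extracted in PBS with 0.5% NP-40 at 4°C; soluble protein was the supernatant after 21,000xg for 90 min. Soluble protein was quantified by TMTpro 16plex LC-MS/MS with channel sums equalised, and reported as log2 fold change in thermal stability against DMSO controls, with values from duplicates.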

filanesib = compound: CON(C)C(=O)N1N=C(c2cc(F)ccc2F)S[C@@]1(CCCN)c1ccccc1 [filanesib]
Procedure, shortened: as §1

zotarolimus = compound: CO[C@H]1C[C@@H]2CC[C@@H](C)[C@@](O)(O2)C(=O)C(=O)N2CCCC[C@H]2C(=O)O[C@H]([C@H](C)C[C@@H]2CC[C@H](n3cnnn3)[C@H](OC)C2)CC(=O)[C@H](C)/C=C(\C)[C@@H](O)[C@@H](OC)C(=O)[C@H](C)C[C@H](C)/C=C/C=C/C=C/1C [zotarolimus]
Procedure, shortened: as §1

idasanutlin = compound: COc1cc(C(=O)O)ccc1NC(=O)[C@@H]1N[C@@H](CC(C)(C)C)[C@](C#N)(c2ccc(Cl)cc2F)[C@H]1c1cccc(Cl)c1F [idasanutlin]
Procedure, shortened: as §1

alisertib = compound: COc1cc(Nc2ncc3c(n2)-c2ccc(Cl)cc2C(c2c(F)cccc2OC)=NC3)ccc1C(=O)O [alisertib]
Procedure, shortened: as §1

[2] = compound: COc1cc2nc(-c3cc(F)ccc3O)nc(N[C@@H]3CNC[C@H]3C(C)(C)O)c2cc1OC
Procedure, shortened: as §1

gefitinib = compound: COc1cc2ncnc(Nc3ccc(F)c(Cl)c3)c2cc1OCCCN1CCOCC1 [gefitinib]
Procedure, shortened: as §1

[3] = compound: COc1cccc2cc(-c3nc([C@H]4CC[C@H](C(=O)O)CC4)n4ncnc(N)c34)[nH]c12
Procedure, shortened: as §1

lapatinib = compound: CS(=O)(=O)CCNCc1ccc(-c2ccc3ncnc(Nc4ccc(OCc5cccc(F)c5)c(Cl)c4)c3c2)o1 [lapatinib]
Procedure, shortened: as §1

pictilisib = compound: CS(=O)(=O)N1CCN(Cc2cc3nc(-c4cccc5[nH]ncc45)nc(N4CCOCC4)c3s2)CC1 [pictilisib]
Procedure, shortened: as §1

Measured: log2 fold change

LUC7L (UniProt Q9NQ29)
inactive: [1] -0.094 | filanesib 0.178 | zotarolimus -0.013 | idasanutlin 0.052 | alisertib -0.07 | [2] 0.024 | gefitinib -0.104 | [3] 0.017 | lapatinib 0.007 | pictilisib 0.092

LSM4 (UniProt Q9Y4Z0)
inactive: [1] 0.051 | filanesib -0.013 | zotarolimus -0.021 | idasanutlin 0.026 | alisertib -0.121 | [2] -0.054 | gefitinib -0.002 | [3] 0.035 | lapatinib 0.022 | pictilisib -0.015

MAPK14 isoform 2 (UniProt Q16539)
inactive: [1] 0 | filanesib 0.016 | zotarolimus -0.033 | idasanutlin -0.018 | alisertib -0.058 | [2] -0.005 | gefitinib 0.811 | [3] 0.319 | lapatinib -0.034 | pictilisib -0.114

MAD2L1BP isoform 3 (UniProt Q15013)
inactive: [1] 0.029 | filanesib 0.003 | zotarolimus 0.029 | idasanutlin 0.023 | alisertib 0.003 | [2] 0.005 | gefitinib 0.012 | [3] 0.052 | lapatinib 0.024

MAP7D1 (UniProt Q3KQU3)
inactive: [1] -0.062 | filanesib 0.291 | zotarolimus -0.046 | idasanutlin 0.252 | alisertib 0.164 | [2] 0.002 | gefitinib -0.144 | [3] -0.171 | lapatinib 0.011 | pictilisib -0.147

LUC7L2 (UniProt Q9Y383)
inactive: [1] 0.05 | filanesib 0.121 | zotarolimus 0.113 | idasanutlin 0.093 | alisertib -0.032 | [2] -0.048 | gefitinib -0.052 | [3] 0.008 | lapatinib 0.04 | pictilisib 0.095

MANEA (UniProt Q5SRI9)
inactive: [1] -0.019 | filanesib -0.04 | zotarolimus 0.053 | idasanutlin 0.053 | alisertib -0.06 | [2] -0.037 | gefitinib 0.033 | [3] 0.064 | lapatinib -0.011 | pictilisib -0.013

MAP4K3 (UniProt Q8IVH8)
inactive: [1] -0.023 | filanesib -0.117

MAP2K4 isoform 2 (UniProt P45985)
inactive: [1] 0.041 | filanesib 0.026 | zotarolimus -0.003 | idasanutlin -0.027 | alisertib 0.014 | [2] 0.012 | gefitinib 0.017 | [3] 0.017 | lapatinib -0.045 | pictilisib -0.115

MAGEA9 (UniProt P43362)
inactive: [1] -0.246 | filanesib 0.003 | zotarolimus 0.015 | idasanutlin 0.087 | alisertib 0.057 | [2] 0.024 | gefitinib 0.034 | [3] 0.033 | lapatinib -0.018 | pictilisib -0.018

MARK3 (UniProt P27448)
inactive: [1] 0.008 | filanesib 0.054 | zotarolimus 0.062 | idasanutlin 0.091 | alisertib 0.05 | [2] -0.219 | gefitinib -0.002 | [3] -0.063 | lapatinib 0.022 | pictilisib -0.033

MACF1 (UniProt Q9UPN3)
inactive: [1] 0.021 | filanesib 0.106 | zotarolimus 0.056 | idasanutlin 0.085 | alisertib -0.006 | [2] -0.018 | gefitinib 0.038 | [3] -0.107 | lapatinib 0.099 | pictilisib 0.043

MAML1 (UniProt Q92585)
inactive: [1] -0.065 | filanesib 0.152 | zotarolimus -0.065

MACROD1 (UniProt Q9BQ69)
inactive: [1] 0.134 | filanesib -0.012 | zotarolimus 0 | idasanutlin -0.118 | alisertib 0.03 | [2] 0.082 | gefitinib 0.068 | [3] -0.069 | lapatinib -0.027 | pictilisib 0.182

MALSU1 (UniProt Q96EH3)
inactive: [1] -0.025 | filanesib 0.02 | zotarolimus 0.014 | idasanutlin 0.001 | alisertib -0.043 | [2] -0.038 | gefitinib 0.011 | [3] 0.085 | lapatinib 0.017 | pictilisib 0.026

LRRC8D (UniProt Q7L1W4)
inactive: [1] -0.115 | filanesib 0.13 | zotarolimus 0.083 | idasanutlin 0.169 | alisertib -0.066 | [2] -0.105 | gefitinib -0.032 | [3] -0.056 | lapatinib 0.128

MAP1B (UniProt P46821)
inactive: [1] -0.02 | filanesib 0.042 | zotarolimus -0.006 | idasanutlin 0.053 | alisertib -0.036 | [2] -0.026 | gefitinib 0.009 | [3] -0.01 | lapatinib 0.004 | pictilisib 0

LZIC isoform 2 (UniProt Q8WZA0)
inactive: [1] 0.005 | filanesib -0.016 | zotarolimus -0.024 | idasanutlin -0.048 | alisertib -0.089 | [2] 0.058 | gefitinib -0.018 | [3] 0.018 | lapatinib -0.021 | pictilisib 0.029

LUZP1 (UniProt Q86V48)
inactive: [1] -0.08 | zotarolimus -0.059 | idasanutlin 0.03 | alisertib -0.081 | [2] -0.036 | gefitinib 0.051 | [3] -0.117 | lapatinib 0.041 | pictilisib 0.07
active: filanesib 0.552

LRWD1 (UniProt Q9UFC0)
inactive: [1] 0.11 | filanesib -0.141 | zotarolimus 0.121 | idasanutlin -0.028 | alisertib -0.041 | [2] 0.07 | gefitinib 0.013 | [3] 0.144 | lapatinib 0.093

MAN1A2 (UniProt O60476)
inactive: [1] -0.019 | filanesib -0.062 | zotarolimus -0.078 | idasanutlin -0.06 | alisertib -0.191 | [2] -0.016 | gefitinib -0.003 | [3] 0.03 | lapatinib 0.041 | pictilisib 0.002

MAP2K7 isoform 4 (UniProt O14733)
inactive: [1] -0.018 | filanesib -0.029 | zotarolimus -0.042 | idasanutlin -0.003 | alisertib -0.029 | [2] 0.019 | gefitinib -0.027 | [3] 0.048 | lapatinib -0.016 | pictilisib 0.137

MAPK12 (UniProt P53778)
inactive: [1] 0.066 | filanesib -0.062 | zotarolimus 0.026 | idasanutlin -0.072 | alisertib -0.115 | [2] 0.084 | gefitinib -0.269 | [3] 0.093 | lapatinib -0.056 | pictilisib 0.062

MAN2B1 (UniProt O00754)
inactive: [1] -0.044 | filanesib -0.002 | zotarolimus -0.013 | idasanutlin -0.023 | alisertib 0.04 | [2] -0.168 | gefitinib -0.022 | [3] 0.133 | lapatinib 0.004 | pictilisib 0.053

LSM3 (UniProt P62310)
inactive: [1] 0.101 | filanesib 0.05 | zotarolimus -0.011 | idasanutlin 0.087 | alisertib -0.275 | [2] -0.004 | gefitinib 0.027 | [3] 0.021 | lapatinib 0.065 | pictilisib -0.107

MAPRE3 (UniProt Q9UPY8)
inactive: filanesib 0.006 | zotarolimus 0.013 | idasanutlin 0.023 | alisertib 0.022 | [2] 0.033 | gefitinib 0.004 | [3] -0.013 | lapatinib -0.044 | pictilisib -0.008
active: [1] -0.242

LYZ (UniProt P61626)
inactive: [1] 0.592 | filanesib 0.034 | zotarolimus 0.059 | idasanutlin 0.27 | alisertib -0.003 | [2] -0.133 | gefitinib 0.306 | [3] 0.103 | lapatinib 0.207

MAP1LC3B2 (UniProt A6NCE7)
inactive: [1] -0.026 | filanesib -0.062 | zotarolimus 0.011 | idasanutlin -0.022 | alisertib -0.004 | [2] -0.032 | gefitinib -0.003 | [3] -0.035 | lapatinib -0.011 | pictilisib -0.004

MAP1A isoform 2 (UniProt P78559)
inactive: [1] 0.046 | filanesib 0.108 | zotarolimus 0.03 | idasanutlin 0.099 | alisertib -0.085 | [2] -0.032 | gefitinib -0.034 | [3] -0.132 | lapatinib 0.138 | pictilisib 0.017

MADD isoform 2 (UniProt Q8WXG6)
inactive: [1] 0.069 | filanesib 0.043 | zotarolimus 0.156 | idasanutlin 0.04 | alisertib -0.06 | [2] 0.123 | gefitinib 0.019 | [3] -0.043 | lapatinib -0.037

MAGEB2 (UniProt O15479)
inactive: [1] -0.119 | filanesib 0.368 | zotarolimus -0.094 | idasanutlin 0.151 | alisertib -0.105 | [2] -0.076 | gefitinib -0.071 | [3] 0.216 | lapatinib 0.167 | pictilisib -0.082

Quoted at random: 2 records from the list.
MACF1 (UniProt Q9UPN3)
inactive: [1] 0.021 | filanesib 0.106 | zotarolimus 0.056 | idasanutlin 0.085 | alisertib -0.006 | [2] -0.018 | gefitinib 0.038 | [3] -0.107 | lapatinib 0.099 | pictilisib 0.043

MAP2K4 isoform 2 (UniProt P45985)
inactive: [1] 0.041 | filanesib 0.026 | zotarolimus -0.003 | idasanutlin -0.027 | alisertib 0.014 | [2] 0.012 | gefitinib 0.017 | [3] 0.017 | lapatinib -0.045 | pictilisib -0.115
